In US12349708B2, “Use and methods of 1,3-propanediol to improve taste and/or off-taste qualities” (Primient Covation LLC, priority 2019, dated 2025):

System: experienced and trained panelist
Assay: Sensorial comparison of energy shot prototypes at various malic acid and sucralose levels with and without bioPDO (Example 5)
Assay type: in vivo, human
Settings: 0.1% bioPDO; midpoint between Exp #8 and Exp #9
Protocol: • 1. Take 1st sip from a full 30 mL medicine cup, taste and swallow the 1st sample, wait 10 seconds, then take a 2nd sip and lock it into memory. Wait for 10 seconds. • 2. Proceed with 2nd sample. Taste 1st sip of the 2nd sample, wait for 10 seconds, and then use the 2nd sip to compare to the 2nd sip (or 3rd sip) of the 1st sample.
Each paired sample evaluation was repeated in triplicate with at least a 10-minute break and a carbon-treated water rinse.
The theory is to try to establish a reduced amount (concentration) of malic acid to match its sourness intensity of our energy shot prototype w/bioPDO to the control, energy shot prototype without bioPDO. Secondly, if this adjustment of lowering the malic acid concentration results in increasing sweetness, an additional step will be performed to reduce the amount of sucralose until both sourness and sweetness taste match that of the control w/o bioPDO. Below are the comparative sensorial evaluation results in Tables 33-36 including their specific sample formulations, observations, and results. Keywords of SUL, MA and CAF are sucralose, malic acid, and caffeine, respectively.

OCCCO [PDO, 1,3-propanediol]
reduction of malic acid concentration achievable: ≤ 38% | reduction of sucralose concentration achievable: ≤ 20%
